Test results: PMC7719180
These are yes or no findings as the source states them, for the method shown. In cells and extracts the contact can be indirect. Some results given as binding are weak or reduced against the parent protein; the word gives no strength. Tags and fused reporters may be left off the sequences shown.

By UniProt entry, the sequences of proteins in these tests, tags left out.
UniProt P14618: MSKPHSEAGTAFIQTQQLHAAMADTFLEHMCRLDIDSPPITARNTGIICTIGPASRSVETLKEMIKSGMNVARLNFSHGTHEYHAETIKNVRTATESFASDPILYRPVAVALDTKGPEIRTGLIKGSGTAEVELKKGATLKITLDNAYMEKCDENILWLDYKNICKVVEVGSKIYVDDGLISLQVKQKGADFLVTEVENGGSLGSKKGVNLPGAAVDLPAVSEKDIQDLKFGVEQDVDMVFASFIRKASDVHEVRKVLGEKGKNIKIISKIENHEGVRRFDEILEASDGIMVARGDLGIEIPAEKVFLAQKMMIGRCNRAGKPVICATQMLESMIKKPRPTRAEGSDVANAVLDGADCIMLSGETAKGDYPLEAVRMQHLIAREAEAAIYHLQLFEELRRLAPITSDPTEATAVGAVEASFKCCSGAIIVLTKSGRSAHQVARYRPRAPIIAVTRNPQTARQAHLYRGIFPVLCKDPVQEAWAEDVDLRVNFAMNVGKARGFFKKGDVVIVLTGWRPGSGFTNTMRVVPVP

B1: Flag-HDAC8 (histone deacetylase 8) (enzyme, UniProt Q9BY41 1-377)
chain: MEEPEEPADSGQSLVPVYIYSPEYVSMCDSLAKIPKRASMVHSLIEAYALHKQMRIVKPKVASMEEMATFHTDAYLQHLQKVSQEGDDDHPDSIEYGLGYDCPATEGIFDYAAAIGGATITAAQCLIDGMCKVAINWSGGWHHAKKDEASGFCYLNDAVLGILRLRRKFERILYVDLDLHHGDGVEDAFSFTSKVMTVSLHKFSPGFFPGTGDVSDVGLGKGRYYSVNVPIQDGIQDEKYYQICESVLKEVYQAFNPKAVVLQLGADTIAGDPMCSFNMTPVGIGKCLKYILQWQLATLILGGGGYNLANTARCWTYLTGVILGKTLSSEIPDHEFFTAYGPDYVLEITPSCRPDRNEPHRIQQILNYIKGNLKHVV
B2: HDAC8 (histone deacetylase 8), endogenous (enzyme, UniProt Q9BY41 1-377)
chain: B1 chain

Tests used:
[1] = target: HA-PKM2 (pyruvate kinase M2), in HEK293T (UniProt P14618); experiment: co-IP; HEK293T co-transfected with HA- and Flag-tagged proteins, 48 h; lysate with anti-HA beads overnight at 4 °C; western blot with Flag and HA antibodies
[2] = target: PKM2 (pyruvate kinase M2), endogenous (human (endogenous in HepG2, SMMC-7721, LO2)) (UniProt P14618); experiment: proximity ligation; Duolink in situ PLA of HDAC8 and PKM2 in fixed SMMC-7721 and LO2 cells
[3] = target: HA-PKM2 (pyruvate kinase M2), in HepG2 (UniProt P14618); experiment: co-IP; HepG2 transfected with HA-PKM2 for 48 h; extracts immunoprecipitated with anti-HA (IgG as control); blot with anti-HDAC8 and HA antibody
[4] = target: PKM2 (pyruvate kinase M2), endogenous (human (endogenous in HepG2, SMMC-7721, LO2)) (UniProt P14618); experiment: co-IP; endogenous; HepG2 lysate with antibody against PKM2 and protein A/G agarose overnight at 4 °C; blot with anti-PKM2 and anti-HDAC8

Row | Binder | binding [1] | binding [2] | binding [3] | binding [4]
1 | B1 | binds | – | – | –
2 | B2 | – | binds | binds | binds
